Results taken from patent publication US10869873B2 (priority 2011, dated 2020).
For at least one compound, name, drawing or mass did not settle the structure.

System: phospho-AP2M1
Experiment: AP2M1 phosphorylation by western analysis
Type: cell-based, human
Conditions: Huh-7.5 cells harboring J6/JFH(p7-Rluc2A) RNA, 72 hr

CCN(CC)CCNC(=O)c1c(C)[nH]c(/C=C2\C(=O)Nc3ccc(F)cc32)c1C [sunitinib]
Phospho-AP2M1 to actin ratios with increasing concentrations: progressively decreased | phospho-AP2M1 levels (phosphorylated-AP2M1 to actin ratio) compared with DMSO control (treated daily, Calyculin A 100 nM 30 min): significantly lower ratios
